Literature values as cited in patent US20120288544A1, “NOVEL RETIGABINE COMPOSITION” (GLAXO GROUP LIMITED, priority 2010, published 2012).
At least one compound was matched to its structure with a doubt left.

Tested on: adult patients with partial-onset seizures
Conditions: Phase III epilepsy trials; cited from earlier work

## CCOC(=O)Nc1ccc(NCc2ccc(F)cc2)cc1N [Retigabine]
  seizure rates compared to patients taking placebo: reduced seizure rates compared to patients taking placebo
